The values that follow come from the supplement of paper PMC12823440, “Inhibitors supercharge kinase turnover through native proteolytic circuits” (Nature, 2025).

Sequences of proteins named here, by UniProt entry; tags and fusion partners are left off.
UniProt P31152, whole entry: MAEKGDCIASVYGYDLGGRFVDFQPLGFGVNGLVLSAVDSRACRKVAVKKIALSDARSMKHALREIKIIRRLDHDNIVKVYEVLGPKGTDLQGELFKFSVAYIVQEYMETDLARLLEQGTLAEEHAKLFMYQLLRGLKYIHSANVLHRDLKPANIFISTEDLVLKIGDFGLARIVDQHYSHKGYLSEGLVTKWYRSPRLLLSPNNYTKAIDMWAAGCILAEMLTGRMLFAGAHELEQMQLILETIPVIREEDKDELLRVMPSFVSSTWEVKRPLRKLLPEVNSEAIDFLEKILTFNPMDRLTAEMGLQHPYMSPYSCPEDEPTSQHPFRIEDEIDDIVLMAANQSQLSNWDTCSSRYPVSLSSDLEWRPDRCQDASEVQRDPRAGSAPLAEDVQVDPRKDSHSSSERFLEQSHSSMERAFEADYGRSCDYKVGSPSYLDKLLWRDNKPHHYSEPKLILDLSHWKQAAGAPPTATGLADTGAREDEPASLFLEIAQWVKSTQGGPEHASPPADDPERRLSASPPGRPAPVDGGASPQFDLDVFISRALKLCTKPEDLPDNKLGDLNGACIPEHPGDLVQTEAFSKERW

Structures can show the parent of a compound that is named as a salt. The list shows a part of the results. The calls rarely recur for the same compound in another form.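 In K562 cells expressing nanoluciferase-fused kinases, luminescence was recorded at 4 h intervals between 2 and 18 h, normalized as percent of control with DMSO at 100% and a positive control at 0%. A significant (2 sigma) signal drop marks a time point as decreased. The authors' rule for a hit is not shown and takes in more than the number of time points.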

The experiment deals with MAPK4 (UniProt P31152). Kind of experiment: number of time points (of 5) at which kinase-Nluc abundance scored as decreased, DMSO-normalised (count); higher = more persistent destabilization. Conditions: K562; 2-18 h.
For the compound `C=C(CCC=C(C)C)[C@H]1CC[C@]2(C)[C@@H]1[C@H](O)C[C@@H]1[C@@]3(C)CC[C@H](O[C@@H]4O[C@H](CO)[C@@H](O)[C@H](O)[C@H]4O[C@@H]4O[C@H](CO)[C@@H](O)[C@H](O)[C@H]4O)C(C)(C)[C@@H]3CC[C@]12C` [Ginsenoside Rk1] (10 µM), the “number of time points” value turned out to be 0.

In the case of `CCn1c(=O)c(-c2ccc(-c3cncs3)cc2Cl)cc2cnc(Nc3ccc(N4CCN(C)CC4)cc3)nc21` (2.5 µM), the “number of time points” value worked out at 0.

Take `Nc1nccc(Oc2ccc(NC(=O)c3cn(COP(=O)(O)O)cc(-c4ccc(F)cc4)c3=O)cc2F)c1Cl` (10 µM): the “number of time points” value came to 0.

On to `Cc1cc(-c2cc(OC(=O)c3ccccc3)ccc2Cl)cc2nnc(Nc3ccc(OCCN4CCCC4)cc3)nc12` (0.5 µM), for which the “number of time points” value is 0.

As to `OC[C@H]1O[C@@H](Oc2cc3c(O)cc(O)cc3[o+]c2-c2cc(O)c(O)c(O)c2)[C@H](O)[C@@H](O)[C@@H]1O` [Delphinidin 3-glucoside (chloride)] (10 µM), the “number of time points” value is 0.

In the case of `O=C(/C=C/c1ccc(O)c(O)c1)c1ccc(O[C@@H]2O[C@H](CO)[C@@H](O)[C@H](O)[C@H]2O)c(O)c1O` [Marein] (10 µM), the “number of time points” value was 0.

On to `O=C1Nc2nc(-c3c(O)cccc3OCC3CC3)cc([C@@H]3CCCNC3)c2CO1` [Bay 65-1942 (hydrochloride)] (10 µM), for which the “number of time points” value came to 0.

In the case of `CC(C)CN(CC(=O)N1CCN(CC(OCc2ccc3ccccc3c2)c2ccc(Cl)cc2Cl)CC1)CC(C)C` (centres undefined) [LYN-1604 (dihydrochloride)] (2.5 µM), the “number of time points” value is 0.

As for `CCc1cc(O)c(F)cc1-c1ccc2c(-c3nc4c([nH]3)CN(C3CCN(C)CC3)CC4)n[nH]c2c1` [JAK-IN-5 (hydrochloride)] (2 µM), the “number of time points” value was 0.

For `Cc1ccc(Nc2cc(-c3cccc(N4C(=O)c5ccccc5C4=O)c3)ncn2)cc1NS(C)(=O)=O` (10 µM), the “number of time points” value stood at 0.

In the case of `C=C1C(=O)O[C@@H]2C[C@@]3(C)CCC[C@H](C)C3=C[C@H]12` [Alantolactone] (10 µM), the “number of time points” value was 0.

With `C=C(C)C(=O)Nc1cccc(-c2ncnc3[nH]cc(C(=O)OCC)c23)c1` (10 µM), the “number of time points” value worked out at 0.

As to `CNc1nc(Nc2cnn(C3CCN(C4COC4)CC3F)c2Cl)ncc1C(F)(F)F` (centres undefined) (10 µM), the “number of time points” value turned out to be 0.

For `Cc1cc(Nc2cc(Cl)nc(Oc3ccc([N+](=O)[O-])cc3)n2)n[nH]1` [Autophinib] (2.5 µM), the “number of time points” value was 0.

Regarding `CC(C)=CC[C@H](O)C1=CC(=O)c2c(O)ccc(O)c2C1=O` [(-)-Alkannin] (2.5 µM), the “number of time points” value is 0.

On to `CNCc1ccccc1-c1csc([C@@H](C)Nc2nc(C)nc3cc(OC)c(OC)cc23)c1` (2.5 µM), for which the “number of time points” value amounted to 2.

On to `COc1ncc(-c2nc(N3CCOCC3)nc3c(CN4CCC(C(C)(C)O)CC4)cc(F)cc23)cc1NS(C)(=O)=O` [Linperlisib] (10 µM), for which the “number of time points” value was determined as 0.

As to `O=C(Nc1ccc(F)cc1F)[C@H](NC(=S)Nc1cc(C(F)(F)F)cc(C(F)(F)F)c1)c1ccccc1` (2.5 µM), the “number of time points” value came to 0.

Turning to `O=C1NC(=O)C(=Cc2ccc(-c3ccc(F)cc3)o2)S1` (stereo in doubt) (10 µM), the “number of time points” value amounted to 0.

Regarding `CCOc1cc(C(=O)N2CCC(N3CCN(C)CC3)CC2)ccc1Nc1ncc2c(n1)N(C1CCCC1)c1ccccc1C(=O)N2C` (10 µM), the “number of time points” value was found to be 0.

On to `OC(COc1ccc(C(F)(F)F)cc1)CN(Cc1ccccc1)Cc1ccccc1` (centres undefined) (2.5 µM), for which the “number of time points” value came out at 0.

For the compound `C[C@@H]1C(=O)O[C@H](C)[C@H]1C[C@@H](O)[C@](C)(O)[C@H]1CC[C@@]2(O)C3=CC(=O)[C@@H]4C[C@@H](O)[C@@H](O)C[C@]4(C)[C@H]3CC[C@]12C` [Cyasterone] (10 µM), the “number of time points” value is 0.

`Cc1c(CN2CCN(C(=O)[C@H](C)O)CC2)sc2c(N3CCOCC3)nc(-c3cnc(N)nc3)nc12` [Apitolisib] (10 µM): the “number of time points” value stood at 0.

Regarding `CC(C)(C)NC(=O)c1cncn1C1CCN(c2ccc(-c3nnc(C(F)(F)F)o3)cn2)CC1` (10 µM), the “number of time points” value turned out to be 0.

`NCc1ccc(Nc2ncc(F)c(Nc3ccccc3)n2)cc1` (10 µM): the “number of time points” value was 0.

`COC1(c2sc3c(N4CCOCC4)nc(-c4cnc(N)nc4)nc3c2C)COC1` (2.5 µM): the “number of time points” value is 0.

For `COc1cc2c[n+](C)c3c4cc5c(cc4ccc3c2cc1OC)OCO5` [Nitidine (chloride)] (2 µM), the “number of time points” value worked out at 0.

Consider `N#Cc1ccc2ncnc(NC3CCC(N4CCOCC4)CC3)c2c1` (centres undefined) (10 µM), for which the “number of time points” value was 0.

`COc1ccc2c(c1O)OC(C)(C)c1c-2ccc2c1C(=O)N(c1ccc(C(=O)c3ccccc3)cc1)C2=O` [Ampkinone] (10 µM): the “number of time points” value is 0.

In the case of `CC1=C2C(=O)O[C@@H](c3ccoc3)[C@]2(C)CCC1` [Fraxinellone] (10 µM), the “number of time points” value came out at 0.

On to `CS(=O)(=O)c1ccc(-c2cnc(N)c(C(=O)Nc3ccccc3)n2)cc1` (10 µM), for which the “number of time points” value is 0.

With `O=C(NC(NC(=S)Nc1ccc(F)c([N+](=O)[O-])c1)C(Cl)(Cl)Cl)C(c1ccccc1)c1ccccc1` (centres undefined) (10 µM), the “number of time points” value worked out at 0.

For `COc1cc(C(N)=O)nc(-c2cccc(C#C[C@]3(O)CCN(C)C3=O)c2)c1` (10 µM), the “number of time points” value was 0.

In the case of `O=C(Nc1cc(Oc2cc(F)c(NC(=O)C3(C(=O)Nc4ccc(F)cc4)CC3)cc2F)ccn1)C1CC1` [Altiratinib] (10 µM), the “number of time points” value is 0.

As to `COc1ccc(Cl)cc1NC(=O)Nc1cc(C)nc2ccccc12` (2.5 µM), the “number of time points” value worked out at 0.

Turning to `COc1ccc(CC(=O)Nc2nc3c(s2)CCc2ccccc2-3)cc1OC` (10 µM), the “number of time points” value was determined as 0.

In the case of `N[C@H](Cc1c[nH]c2ccccc12)C(=O)N/N=C/c1ccc2nccnc2c1` [Rhosin (hydrochloride)] (10 µM), the “number of time points” value came out at 0.

Regarding `CC(C)(C)c1ccc(S(=O)(=O)Nc2ccc(-n3ccnc3)cc2)cc1` (10 µM), the “number of time points” value came to 0.

Take `Cc1ccc(-c2c(C(=O)CF)n(CCCO)c3ncnc(N)c23)cc1` (10 µM): the “number of time points” value came out at 0.
